From publication PMC9663306 come the findings set out here.

No constants are given. Whether binding was seen depends on the method and setting. Binding seen in cells or lysates may run through a third protein. Where a sequence is shown, tags or fusion partners need not be part of it.

This assay deals with T1, SF-IL-17RC (murine IL-17RC with C-terminal 2xStrep-3xFlag tag), in ST2 cells (mouse) (UniProt Q8K4C2).
T1 sequence (chain, N-glycosylated (100 kDa and 150 kDa forms)): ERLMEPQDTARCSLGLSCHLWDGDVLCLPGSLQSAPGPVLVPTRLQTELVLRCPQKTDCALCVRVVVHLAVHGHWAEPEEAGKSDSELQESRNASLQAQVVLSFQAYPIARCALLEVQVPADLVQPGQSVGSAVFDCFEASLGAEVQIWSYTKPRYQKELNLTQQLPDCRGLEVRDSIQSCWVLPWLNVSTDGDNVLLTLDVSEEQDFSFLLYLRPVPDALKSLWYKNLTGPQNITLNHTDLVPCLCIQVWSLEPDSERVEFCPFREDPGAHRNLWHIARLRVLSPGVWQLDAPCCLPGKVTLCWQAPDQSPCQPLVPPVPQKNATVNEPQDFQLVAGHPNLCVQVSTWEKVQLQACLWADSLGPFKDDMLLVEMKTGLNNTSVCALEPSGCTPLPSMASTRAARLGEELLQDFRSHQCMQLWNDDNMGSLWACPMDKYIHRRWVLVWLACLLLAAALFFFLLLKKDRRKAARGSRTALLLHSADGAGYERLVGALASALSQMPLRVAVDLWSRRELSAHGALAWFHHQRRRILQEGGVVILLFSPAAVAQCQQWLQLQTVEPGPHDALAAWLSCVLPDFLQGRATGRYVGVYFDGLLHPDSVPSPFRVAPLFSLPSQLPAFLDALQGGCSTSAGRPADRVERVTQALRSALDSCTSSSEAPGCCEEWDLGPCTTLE
Description: co-IP; Flag IP from lysates of Cmtm4−/− ST2 cells transduced with Myc-tagged members of the CMTM family (CMTM1–8) together with SF-IL-17RC, immunoblot.

Turning to Myc-tagged CMTM2 (mouse), the binding result is reported as “no binding”.
